Reference: paper PMC3422340
These are yes or no findings as the source states them, for the method shown. Binding seen in cells or lysates may run through a third protein. Some binding calls cover weakened binding; strength is not graded here. Tags and fused reporters may be left off the sequences shown.

Target: T1, GST-S1CD fusion protein (mouse) (UniProt P18828)
T1 sequence: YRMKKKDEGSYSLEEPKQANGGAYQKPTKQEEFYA
Experiment: pull-down; GST or GST-S1CD adsorbed to glutathione-agarose, incubated 2 hours at 4°C with triple detergent extracts of 3T3 cells that overexpress Topors, diluted in NET-BSA; eluted with glutathione; western blot with chicken anti-Topors; only the target purified

B1: carboxyl-terminal c-Myc epitope-tagged murine Topors overexpressed in 3T3 cells (protein, UniProt Q80Z37 1-1016)
chain: MGSQPPPPGSPLSREEGEAPPLVPAEEGRRRSRRVRLRGSCRHRPSLLSRRELASNGPAVPATASSEIMASAAKEFKMDNFSPKAGTSKLQQTVPADASPDSKCPICLDRFDNVSYLDRCLHKFCFRCVQEWSKNKAECPLCKQPFDSIFHSVRAEDDFKEYVLRPSYNGSFTNPEVRRFRYRTTMTRERSASLYSPSSTVSRRTTTPPDSGVLFEGLGISTRPRDVDIPQFMRQMALRGPTTTDERSLRKIQEQDIINFRRTLYRAGVRVRSIEDGGRYRDISAEFFRRNPACLHRLVPWLKRELTVLFGAHGSLVNIVQHIIMSNVTRYDLESQAFVSDLRPFLLNRTEHFIHEFISFARSPFNMAAFDQHANYDCPPSSEEGSRSDSSVITISPDEAETQELDMNASTVRQAPWDDETPGPSYSSSEQVHVGVSSLLNSSDSSDEELVSGGTTSQIQGVQTNDDVNNDSDSSSDNCVIVGFVKPLAERTPELVELSSDSEELGPYEKVETVKTQEQEQSYSSGDSDVSRASSPRSVLGKDEQMSKSHCDSDTRISSKKEEKRSTSLPAPRDSSSTRGDRVCSPYNHRHRKGGRSRSSDSRSQSRSGHDPRNHRKHGKKRLRNKRSRSRESSSRPRARKDKKRSRTRDSSWSRRSQTLSLSSGSTSRSRSRSSDHGKRRSRSRNRDRYYLRNNYGSKYKWEYTYYSRNKDRDGYESSYRRRTLSRAHYSRQSSSPEFRIQSFSERTNARKKNHSERKYYYYERRRSRSVSSNRSRTTSAGPDRVRNEKPGGKRKYKTRHLEGTSEEAQPAREFTSKGKDSHYQKSKLDGSYKNESDSFSDSRSSDRETKHKRRRRRTRSLSVEIVYEGKATDTSKHHKKKKKKHKKKHKKHHGDNTSRSPVVITIDSDSDGESEVKAGIECSNGSLPQPIQDGAFETKDVVTIEDELGVLDKDCDVTALADDLSTSQTVENCDSPAVPVEQTLDVREESTFASDLESQSSNVSIQAEPSRPVPS
binding: binds
